Data taken from patent US20210340270A1 (Amgen, published 2021).
No constants are given. Whether binding was seen depends on the method and setting. Some binding calls cover weakened binding; strength is not graded here.

Amino acid sequences for entries named in this document (tags omitted). A change or cut given only in a name is not applied to a line headed by its entry.
UniProt P78504: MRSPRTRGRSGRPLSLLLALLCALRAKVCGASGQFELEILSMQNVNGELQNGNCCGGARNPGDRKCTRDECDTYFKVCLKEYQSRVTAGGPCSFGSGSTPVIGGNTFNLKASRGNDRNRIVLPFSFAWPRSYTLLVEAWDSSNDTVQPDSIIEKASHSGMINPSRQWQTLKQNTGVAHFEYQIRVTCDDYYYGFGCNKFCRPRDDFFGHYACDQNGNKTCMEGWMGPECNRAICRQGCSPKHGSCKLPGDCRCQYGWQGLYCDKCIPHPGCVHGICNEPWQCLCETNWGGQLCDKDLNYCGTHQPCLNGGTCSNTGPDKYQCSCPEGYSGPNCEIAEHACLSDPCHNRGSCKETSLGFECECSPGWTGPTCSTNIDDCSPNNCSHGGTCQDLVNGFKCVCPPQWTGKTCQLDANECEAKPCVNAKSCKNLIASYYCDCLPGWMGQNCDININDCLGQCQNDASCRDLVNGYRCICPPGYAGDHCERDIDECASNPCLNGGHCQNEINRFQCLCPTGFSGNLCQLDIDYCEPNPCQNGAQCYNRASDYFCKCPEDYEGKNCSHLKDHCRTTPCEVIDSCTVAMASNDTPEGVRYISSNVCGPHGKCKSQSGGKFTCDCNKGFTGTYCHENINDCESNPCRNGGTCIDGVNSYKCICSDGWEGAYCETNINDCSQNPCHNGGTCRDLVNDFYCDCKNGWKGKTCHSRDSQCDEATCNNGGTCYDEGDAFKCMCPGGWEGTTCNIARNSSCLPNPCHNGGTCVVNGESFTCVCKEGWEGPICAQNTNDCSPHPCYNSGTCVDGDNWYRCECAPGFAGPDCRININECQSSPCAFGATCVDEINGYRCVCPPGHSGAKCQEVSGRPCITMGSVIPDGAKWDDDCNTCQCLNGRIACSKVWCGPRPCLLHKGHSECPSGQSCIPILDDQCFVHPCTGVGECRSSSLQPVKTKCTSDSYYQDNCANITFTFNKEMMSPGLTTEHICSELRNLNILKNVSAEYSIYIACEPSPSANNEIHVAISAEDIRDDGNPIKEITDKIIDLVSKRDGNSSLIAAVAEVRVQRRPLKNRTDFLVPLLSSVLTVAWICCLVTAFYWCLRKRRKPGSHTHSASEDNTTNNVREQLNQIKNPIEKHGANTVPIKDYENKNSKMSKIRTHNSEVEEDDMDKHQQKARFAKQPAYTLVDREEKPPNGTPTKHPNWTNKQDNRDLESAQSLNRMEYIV

Assays:
[1] = molecular target: Human JAG1/Jagged1 His Tag (Sino Biological Cat #: 11648-H08H) (human) (UniProt P78504); assay: ELISA, 1 ug/ml ligand coated on the plate, 15D11.1 titrated, detection with peroxidase anti-human Fab, absorbance 450 nm
[2] = molecular target: Recombinant Human Jagged 1 Fc chimera (R&D Systems Cat #: 1277-M-050) (human) (UniProt P78504); assay: as above
[3] = molecular target: Human JAG1/Jagged1 His Tag (Sino Biological Cat #: 11648-H08H) (human) (UniProt P78504); assay: ELISA on recombinant purified Notch ligands
[4] = molecular target: Recombinant Human Jagged 1 Fc chimera (R&D Systems Cat #: 1277-M-050) (human) (UniProt P78504); assay: ELISA on recombinant purified Notch ligands
[5] = molecular target: recombinant human Jagged1 extracellular domain (Met 1-Ser 1046), fused with a polyhistidine tag at the C-terminus (Creative Biomart Cat #JAG1-3226H) (human) (UniProt P78504); assay: Octet (biolayer interferometry), 15D11.1 captured on anti-human Fc biosensors, soluble hJagged1 ECD-His as analyte (50, 15.3, 5.1, 1.7 and 0.56 nM per paragraph 358)

Measured: binding

B1: anti-hJagged1 mAb 15D11.1 (antibody, V domains shown)
VH: QVTLKESGPVLVKPTETLTLTCTVSGFSLSNAEMGVSWIRQPPGKALEWLAHLFSNDEKSYSTSLKSRLTISKDTSKSQVVLTMTDLDPVDTATYYCARSFNWNYDFDYWGQGTLVTVSS
VL: QSALTQPASVSGSPGQSITISCTGTSSAVGGHNFVSWYQQYPGKAPKLMIYEVSNRPSGVSTRFSGSKSGNTASLTISGLQAEDEADYYCSSYTSSSTWVFGGGTRLTVL
notes: Fully human monoclonal antibody from XenoMouse (XMG2-KL / XMG4-KL) hybridomas; also called iPS:480499; anti-Jag-1 15D11.1
binds: [1] | [2] | [3] | [4] | [5]
